# Data reported in the supplement of paper PMC6411743.
# Protein sequences, listed by entry. Tags and fused reporters are not part of them. Lines headed by an entry give the natural chain unless they say otherwise; changes in a name come on top.
# UniProt P31946: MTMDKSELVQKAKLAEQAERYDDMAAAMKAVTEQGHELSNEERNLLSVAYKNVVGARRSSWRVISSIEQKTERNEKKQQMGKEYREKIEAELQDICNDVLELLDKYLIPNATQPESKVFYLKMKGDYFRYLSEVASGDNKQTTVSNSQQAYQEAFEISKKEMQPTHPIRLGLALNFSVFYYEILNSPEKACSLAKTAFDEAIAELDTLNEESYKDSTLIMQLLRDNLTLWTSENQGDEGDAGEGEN
# UniProt P30533, whole entry: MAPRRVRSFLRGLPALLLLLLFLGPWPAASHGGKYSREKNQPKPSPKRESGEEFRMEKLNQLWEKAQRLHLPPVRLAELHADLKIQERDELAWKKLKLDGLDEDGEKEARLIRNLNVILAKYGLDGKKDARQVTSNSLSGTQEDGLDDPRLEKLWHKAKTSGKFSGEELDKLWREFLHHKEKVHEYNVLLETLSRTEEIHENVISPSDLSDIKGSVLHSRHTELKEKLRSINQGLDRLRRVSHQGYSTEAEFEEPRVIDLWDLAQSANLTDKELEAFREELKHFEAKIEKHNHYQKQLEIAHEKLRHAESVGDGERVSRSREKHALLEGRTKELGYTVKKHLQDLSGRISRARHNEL
# UniProt P42695: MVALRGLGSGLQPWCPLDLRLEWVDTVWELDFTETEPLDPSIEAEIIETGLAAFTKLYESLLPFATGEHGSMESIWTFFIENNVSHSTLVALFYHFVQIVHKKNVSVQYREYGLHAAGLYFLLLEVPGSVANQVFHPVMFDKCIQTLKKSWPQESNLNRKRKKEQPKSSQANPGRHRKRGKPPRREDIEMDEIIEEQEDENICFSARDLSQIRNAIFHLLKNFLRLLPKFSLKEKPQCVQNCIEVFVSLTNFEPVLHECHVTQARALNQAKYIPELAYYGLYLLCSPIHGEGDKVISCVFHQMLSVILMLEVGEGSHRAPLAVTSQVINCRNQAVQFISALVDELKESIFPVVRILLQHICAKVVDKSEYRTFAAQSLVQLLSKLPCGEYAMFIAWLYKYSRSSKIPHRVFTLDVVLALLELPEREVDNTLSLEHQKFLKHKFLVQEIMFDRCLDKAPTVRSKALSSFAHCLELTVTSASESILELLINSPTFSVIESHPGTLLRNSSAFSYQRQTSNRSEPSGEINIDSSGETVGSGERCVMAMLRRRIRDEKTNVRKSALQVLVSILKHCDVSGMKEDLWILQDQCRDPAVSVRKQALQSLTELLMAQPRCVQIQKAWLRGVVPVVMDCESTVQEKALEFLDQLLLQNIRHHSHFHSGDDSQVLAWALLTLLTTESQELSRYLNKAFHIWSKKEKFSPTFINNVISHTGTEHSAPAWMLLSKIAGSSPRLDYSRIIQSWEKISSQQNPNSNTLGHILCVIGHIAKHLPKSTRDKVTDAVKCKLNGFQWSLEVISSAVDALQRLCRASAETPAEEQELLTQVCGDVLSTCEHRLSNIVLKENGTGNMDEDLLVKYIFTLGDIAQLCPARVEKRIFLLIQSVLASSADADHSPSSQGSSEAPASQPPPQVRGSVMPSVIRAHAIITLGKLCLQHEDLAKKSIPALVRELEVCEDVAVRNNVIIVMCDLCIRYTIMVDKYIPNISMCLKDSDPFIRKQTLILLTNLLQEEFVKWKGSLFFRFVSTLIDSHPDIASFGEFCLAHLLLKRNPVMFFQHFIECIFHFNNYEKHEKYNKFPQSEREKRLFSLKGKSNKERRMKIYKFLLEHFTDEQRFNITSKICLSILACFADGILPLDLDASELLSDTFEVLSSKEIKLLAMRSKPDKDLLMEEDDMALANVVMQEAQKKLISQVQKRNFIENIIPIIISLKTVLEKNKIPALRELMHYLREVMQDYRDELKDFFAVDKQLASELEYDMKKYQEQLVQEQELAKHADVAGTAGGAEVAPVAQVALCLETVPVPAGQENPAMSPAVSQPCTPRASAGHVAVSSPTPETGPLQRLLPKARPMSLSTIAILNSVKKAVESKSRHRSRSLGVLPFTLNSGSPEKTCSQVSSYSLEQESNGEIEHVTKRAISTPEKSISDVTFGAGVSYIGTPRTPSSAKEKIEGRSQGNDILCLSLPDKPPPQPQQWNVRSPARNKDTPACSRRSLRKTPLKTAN
# UniProt P30307: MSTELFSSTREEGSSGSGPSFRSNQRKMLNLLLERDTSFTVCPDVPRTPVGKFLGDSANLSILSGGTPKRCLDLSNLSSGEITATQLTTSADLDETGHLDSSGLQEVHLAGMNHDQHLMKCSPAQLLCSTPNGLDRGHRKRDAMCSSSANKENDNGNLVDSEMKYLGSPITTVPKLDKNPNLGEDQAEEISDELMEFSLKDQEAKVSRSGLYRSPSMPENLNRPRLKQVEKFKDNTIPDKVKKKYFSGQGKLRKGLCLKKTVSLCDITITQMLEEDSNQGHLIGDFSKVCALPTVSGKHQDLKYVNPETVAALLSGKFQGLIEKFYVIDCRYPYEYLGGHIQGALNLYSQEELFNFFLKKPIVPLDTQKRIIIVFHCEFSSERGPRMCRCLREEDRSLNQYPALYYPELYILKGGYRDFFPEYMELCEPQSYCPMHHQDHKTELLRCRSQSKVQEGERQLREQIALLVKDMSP
# UniProt P41223: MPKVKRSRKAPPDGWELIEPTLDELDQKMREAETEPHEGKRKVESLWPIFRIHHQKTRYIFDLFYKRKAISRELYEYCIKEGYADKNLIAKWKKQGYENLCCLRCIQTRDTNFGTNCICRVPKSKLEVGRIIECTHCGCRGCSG
# UniProt P41212: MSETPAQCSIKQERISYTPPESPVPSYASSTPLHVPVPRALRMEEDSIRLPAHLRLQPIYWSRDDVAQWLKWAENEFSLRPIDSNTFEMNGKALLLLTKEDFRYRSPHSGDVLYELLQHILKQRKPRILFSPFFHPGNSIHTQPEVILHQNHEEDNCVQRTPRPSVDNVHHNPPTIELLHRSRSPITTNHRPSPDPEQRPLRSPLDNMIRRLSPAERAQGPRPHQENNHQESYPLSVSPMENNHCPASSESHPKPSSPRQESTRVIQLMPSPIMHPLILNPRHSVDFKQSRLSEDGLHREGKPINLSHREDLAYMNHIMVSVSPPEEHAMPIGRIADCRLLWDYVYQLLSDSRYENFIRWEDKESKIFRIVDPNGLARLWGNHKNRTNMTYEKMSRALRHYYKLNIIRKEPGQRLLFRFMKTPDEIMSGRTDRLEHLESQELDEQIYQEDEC
# UniProt P32519: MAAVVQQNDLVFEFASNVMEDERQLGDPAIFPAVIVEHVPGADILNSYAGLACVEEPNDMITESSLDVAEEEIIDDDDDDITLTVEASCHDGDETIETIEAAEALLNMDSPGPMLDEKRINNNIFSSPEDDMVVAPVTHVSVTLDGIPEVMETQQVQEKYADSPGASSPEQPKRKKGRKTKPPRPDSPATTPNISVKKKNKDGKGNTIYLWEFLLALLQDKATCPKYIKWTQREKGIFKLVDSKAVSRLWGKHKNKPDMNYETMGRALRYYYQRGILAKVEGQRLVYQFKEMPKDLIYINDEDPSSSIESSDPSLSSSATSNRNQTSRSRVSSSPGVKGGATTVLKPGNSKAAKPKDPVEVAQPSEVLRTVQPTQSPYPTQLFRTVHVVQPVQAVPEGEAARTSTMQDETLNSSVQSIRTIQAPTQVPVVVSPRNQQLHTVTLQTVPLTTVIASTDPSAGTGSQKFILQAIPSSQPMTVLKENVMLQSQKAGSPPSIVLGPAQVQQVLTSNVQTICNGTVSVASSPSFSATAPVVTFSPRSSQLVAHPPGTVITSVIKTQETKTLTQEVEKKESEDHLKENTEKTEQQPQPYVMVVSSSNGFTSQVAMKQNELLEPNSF
# UniProt P32019: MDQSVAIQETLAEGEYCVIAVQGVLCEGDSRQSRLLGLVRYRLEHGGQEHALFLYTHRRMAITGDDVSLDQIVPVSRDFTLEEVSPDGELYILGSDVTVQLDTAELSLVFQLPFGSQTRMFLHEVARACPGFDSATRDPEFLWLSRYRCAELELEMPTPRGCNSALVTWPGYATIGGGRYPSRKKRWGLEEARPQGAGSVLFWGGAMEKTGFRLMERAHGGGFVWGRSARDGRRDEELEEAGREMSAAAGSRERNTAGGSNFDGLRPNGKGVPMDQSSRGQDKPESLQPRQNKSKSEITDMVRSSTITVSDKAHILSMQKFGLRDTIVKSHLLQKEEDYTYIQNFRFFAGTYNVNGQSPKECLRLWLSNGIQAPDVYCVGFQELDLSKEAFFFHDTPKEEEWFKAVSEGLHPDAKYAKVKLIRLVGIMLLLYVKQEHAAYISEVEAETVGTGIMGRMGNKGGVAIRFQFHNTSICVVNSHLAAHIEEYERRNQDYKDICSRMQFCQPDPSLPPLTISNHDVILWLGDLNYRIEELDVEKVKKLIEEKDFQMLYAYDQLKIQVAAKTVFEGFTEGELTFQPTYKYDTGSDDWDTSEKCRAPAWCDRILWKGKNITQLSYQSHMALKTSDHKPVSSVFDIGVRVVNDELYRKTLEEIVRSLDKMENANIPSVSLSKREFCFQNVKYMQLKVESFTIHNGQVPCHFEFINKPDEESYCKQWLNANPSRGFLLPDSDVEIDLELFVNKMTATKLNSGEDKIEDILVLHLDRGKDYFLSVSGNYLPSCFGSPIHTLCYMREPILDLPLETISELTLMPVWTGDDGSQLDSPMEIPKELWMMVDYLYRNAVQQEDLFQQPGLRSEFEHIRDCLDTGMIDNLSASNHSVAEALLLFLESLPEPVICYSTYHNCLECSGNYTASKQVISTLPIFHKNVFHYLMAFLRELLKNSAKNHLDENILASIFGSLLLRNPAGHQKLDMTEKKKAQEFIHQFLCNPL
# UniProt P30038: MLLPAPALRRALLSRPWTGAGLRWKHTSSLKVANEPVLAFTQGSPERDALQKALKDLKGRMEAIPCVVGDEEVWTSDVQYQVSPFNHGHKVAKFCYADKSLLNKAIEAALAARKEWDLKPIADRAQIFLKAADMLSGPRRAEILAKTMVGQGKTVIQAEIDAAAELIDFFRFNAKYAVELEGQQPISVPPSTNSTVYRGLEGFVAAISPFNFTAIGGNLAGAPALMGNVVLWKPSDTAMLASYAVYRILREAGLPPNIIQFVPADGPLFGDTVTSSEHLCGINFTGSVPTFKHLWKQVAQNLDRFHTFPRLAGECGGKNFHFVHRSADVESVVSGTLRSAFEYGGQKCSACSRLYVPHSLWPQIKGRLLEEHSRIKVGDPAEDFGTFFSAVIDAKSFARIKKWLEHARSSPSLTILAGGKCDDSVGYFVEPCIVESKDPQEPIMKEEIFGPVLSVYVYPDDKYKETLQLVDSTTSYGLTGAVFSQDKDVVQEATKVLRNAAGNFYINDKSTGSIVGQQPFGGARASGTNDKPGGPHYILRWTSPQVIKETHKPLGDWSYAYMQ
# UniProt P36551: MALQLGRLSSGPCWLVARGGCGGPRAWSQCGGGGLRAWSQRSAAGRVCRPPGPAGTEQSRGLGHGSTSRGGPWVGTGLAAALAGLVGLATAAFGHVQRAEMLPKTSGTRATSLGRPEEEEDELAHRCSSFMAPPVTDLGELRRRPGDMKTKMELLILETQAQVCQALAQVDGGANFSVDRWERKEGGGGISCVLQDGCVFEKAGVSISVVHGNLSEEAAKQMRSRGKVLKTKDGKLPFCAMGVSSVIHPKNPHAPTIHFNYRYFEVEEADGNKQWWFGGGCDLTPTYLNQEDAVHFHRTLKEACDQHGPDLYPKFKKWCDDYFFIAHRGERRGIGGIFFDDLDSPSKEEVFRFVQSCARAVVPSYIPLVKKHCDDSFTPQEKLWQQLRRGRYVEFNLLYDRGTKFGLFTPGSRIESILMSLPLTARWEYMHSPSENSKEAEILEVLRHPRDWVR
# UniProt P49674: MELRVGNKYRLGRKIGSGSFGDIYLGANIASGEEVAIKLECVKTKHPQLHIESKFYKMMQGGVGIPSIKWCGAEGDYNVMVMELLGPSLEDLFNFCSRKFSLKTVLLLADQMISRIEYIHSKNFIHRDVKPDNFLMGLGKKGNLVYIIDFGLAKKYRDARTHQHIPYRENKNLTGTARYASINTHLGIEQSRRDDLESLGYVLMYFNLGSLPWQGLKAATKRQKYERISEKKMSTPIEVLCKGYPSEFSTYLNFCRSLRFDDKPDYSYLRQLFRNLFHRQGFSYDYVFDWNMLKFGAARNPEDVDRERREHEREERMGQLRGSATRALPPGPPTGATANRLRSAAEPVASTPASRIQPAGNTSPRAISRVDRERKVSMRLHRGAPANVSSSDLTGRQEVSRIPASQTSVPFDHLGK
# UniProt P35244: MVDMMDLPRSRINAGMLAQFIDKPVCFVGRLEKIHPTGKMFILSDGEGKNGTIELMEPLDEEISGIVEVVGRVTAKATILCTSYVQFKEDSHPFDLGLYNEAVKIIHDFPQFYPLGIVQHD
# ± gives the standard deviation of the averaged measurements. This is one part of the list.
# Compound: Nc1nc2c(ncn2[C@@H]2O[C@H](COP(=O)(O)OP(=O)(O)OP(=O)(O)O)[C@@H](O)[C@H]2O)c(=O)[nH]1 [guanosine triphosphate]
# Assay: NP40-soluble protein abundance relative to vehicle (solubility fold change) (ratio); higher = more soluble protein in presence of GTP
# Outline: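 Jurkat crude lysate prepared with a Dounce homogeniser was treated at eight concentrations spanning 0.1 to 10 mM, 10 min at room temperature then 3 min at 37 °C. Solubilisation with 0.8% NP40 and benzonase and ultracentrifugation preceded TMT labelling of the supernatant for LC-MS/MS. Fold change against the detergent-processed vehicle was determined per replicate from vsn-normalised intensities, across three independent experiments.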
Target,NP40-soluble protein abundance (concentration: 0.1mM),NP40-soluble protein abundance (concentration: 0.5mM),NP40-soluble protein abundance (concentration: 1mM),NP40-soluble protein abundance (concentration: 2mM),NP40-soluble protein abundance (concentration: 4mM),NP40-soluble protein abundance (concentration: 6mM),NP40-soluble protein abundance (concentration: 8mM),NP40-soluble protein abundance (concentration: 10mM)
UniProt P46734 and related entries,1.02 ± 0.17,1.05 ± 0.12,0.957 ± 0.036,0.946 ± 0.098,0.947 ± 0.094,0.954 ± 0.087,0.987 ± 0.085,0.983 ± 0.12
UniProt P37275 and related entries,0.935 ± 0.12,0.965 ± 0.13,0.99 ± 0.12,0.928 ± 0.1,0.937 ± 0.12,0.936 ± 0.084,0.976 ± 0.082,0.98 ± 0.094
MCM7 (UniProt P33993),1.01 ± 0.018,1.06 ± 0.061,0.988 ± 0.071,1.01 ± 0.11,1 ± 0.13,1.02 ± 0.13,1 ± 0.081,0.962 ± 0.079
UniProt P31946 and related entries,0.802 ± 0.086,0.796 ± 0.052,0.977 ± 0.11,0.962 ± 0.029,0.884 ± 0.041,0.964 ± 0.051,0.875 ± 0.11,1.04 ± 0.14
LRPAP1 (UniProt P30533),0.95 ± 0.047,0.973 ± 0.084,1.04 ± 0.059,1.11 ± 0.12,1.2 ± 0.1,1.25 ± 0.098,1.23 ± 0.14,1.32 ± 0.068
NCAPD3 (UniProt P42695),0.988 ± 0.028,1.05 ± 0.038,1.07 ± 0.012,1.08 ± 0.039,1.11 ± 0.087,1.11 ± 0.095,1.14 ± 0.14,1.06 ± 0.038
UniProt P30307 and related entries,1.12 ± 0.12,1.12 ± 0.015,1.07 ± 0.051,1.16 ± 0.05,1.09 ± 0.021,1.07 ± 0.085,1.03 ± 0.044,1.02 ± 0.14
UniProt P49321 and related entries,0.859 ± 0.067,0.861 ± 0.08,0.926 ± 0.072,0.883 ± 0.11,0.857 ± 0.094,0.891 ± 0.096,0.866 ± 0.076,0.905 ± 0.082
UniProt P49796 and related entries,0.893 ± 0.075,0.87 ± 0.13,0.908 ± 0.13,0.872 ± 0.13,0.832 ± 0.085,0.864 ± 0.087,0.851 ± 0.096,0.92 ± 0.18
CBX5 (UniProt P45973),0.913 ± 0.025,0.936 ± 0.053,1.08 ± 0.036,1.1 ± 0.1,1.22 ± 0.069,1.29 ± 0.088,1.39 ± 0.054,1.48 ± 0.046
KIF5B (UniProt P33176),0.951 ± 0.074,0.986 ± 0.073,0.965 ± 0.074,0.938 ± 0.081,0.933 ± 0.067,0.963 ± 0.077,0.971 ± 0.073,0.959 ± 0.079
UniProt P41223,1.04 ± 0.11,0.952 ± 0.072,1.02 ± 0.061,1.04 ± 0.11,1.09 ± 0.09,1.03 ± 0.078,0.976 ± 0.12,1.08 ± 0.14
ETV6 (UniProt P41212),1.09 ± 0.057,1.16 ± 0.099,1.15 ± 0.12,1.13 ± 0.097,1.19 ± 0.1,1.12 ± 0.14,1.2 ± 0.14,1.12 ± 0.13
UniProt P43487 and related entries,0.858 ± 0.039,0.885 ± 0.043,0.952 ± 0.076,0.932 ± 0.02,0.871 ± 0.095,0.979 ± 0.081,0.938 ± 0.061,1.07 ± 0.016
UniProt P32519 and related entries,0.932 ± 0.036,0.949 ± 0.066,0.933 ± 0.032,0.913 ± 0.077,0.881 ± 0.065,0.916 ± 0.084,0.935 ± 0.049,0.922 ± 0.071
UniProt P32019 and related entries,1.12 ± 0.071,0.933 ± 0.018,0.9946 ± 0.0049,0.932 ± 0.066,0.949 ± 0.024,0.888 ± 0.022,0.889 ± 0.0091,0.8541 ± 0.0082
UniProt P41250,1 ± 0.019,1.012 ± 0.0078,0.963 ± 0.022,0.918 ± 0.026,0.899 ± 0.036,0.923 ± 0.036,0.901 ± 0.041,0.868 ± 0.052
ALDH4A1 (UniProt P30038),0.964 ± 0.078,0.965 ± 0.07,0.955 ± 0.057,0.917 ± 0.083,0.917 ± 0.079,0.916 ± 0.085,0.904 ± 0.066,0.889 ± 0.069
MAT2A (UniProt P31153),0.994 ± 0.037,1.03 ± 0.067,0.914 ± 0.034,0.905 ± 0.068,0.892 ± 0.053,0.92 ± 0.045,0.891 ± 0.013,0.862 ± 0.039
MCM4 (UniProt P33991),0.995 ± 0.02,1.04 ± 0.047,1 ± 0.061,1 ± 0.084,1.01 ± 0.096,1.01 ± 0.11,1.01 ± 0.099,0.962 ± 0.081
ERP29 (UniProt P30040),0.883 ± 0.013,0.867 ± 0.028,0.93 ± 0.025,0.899 ± 0.027,0.869 ± 0.035,0.882 ± 0.037,0.84 ± 0.084,0.856 ± 0.041
CPOX (UniProt P36551),1.01 ± 0.031,1.01 ± 0.032,0.929 ± 0.062,0.917 ± 0.04,0.951 ± 0.034,0.911 ± 0.054,0.881 ± 0.034,0.876 ± 0.051
UniProt P30622 and related entries,0.996 ± 0.068,1 ± 0.086,1.01 ± 0.08,0.97 ± 0.11,0.953 ± 0.076,0.954 ± 0.069,1 ± 0.088,1.01 ± 0.11
ACADSB (UniProt P45954),1.02 ± 0.011,1.01 ± 0.021,0.9803 ± 0.0081,0.975 ± 0.033,0.98 ± 0.023,0.948 ± 0.037,0.915 ± 0.03,0.894 ± 0.011
RPL29 (UniProt P47914),0.982 ± 0.1,0.997 ± 0.14,1.21 ± 0.15,1.09 ± 0.17,1.07 ± 0.22,0.991 ± 0.23,1.02 ± 0.33,1.12 ± 0.29
PTDSS1 (UniProt P48651),1.16 ± 0.25,1.16 ± 0.29,1.16 ± 0.21,1.38 ± 0.3,1.54 ± 0.37,1.54 ± 0.44,1.62 ± 0.39,1.64 ± 0.35
UniProt P49674,1.1 ± 0.097,1.12 ± 0.18,1.03 ± 0.1,1.01 ± 0.056,1 ± 0.073,1.08 ± 0.091,1.19 ± 0.063,1.14 ± 0.068
HSPA13 (UniProt P48723),1.04 ± 0.088,1.02 ± 0.1,0.987 ± 0.043,1.01 ± 0.04,1.02 ± 0.067,0.973 ± 0.061,0.996 ± 0.079,0.956 ± 0.051
GMPS (UniProt P49915),0.9722 ± 0.0091,0.9922 ± 0.0088,0.9203 ± 0.0078,0.91 ± 0.038,0.882 ± 0.026,0.899 ± 0.028,0.869 ± 0.036,0.867 ± 0.067
RPA3 (UniProt P35244),0.925 ± 0.12,0.913 ± 0.082,0.96 ± 0.13,0.935 ± 0.1,0.906 ± 0.085,0.932 ± 0.07,0.891 ± 0.13,0.934 ± 0.1

# Retrieved one by one from above:
Target,NP40-soluble protein abundance (concentration: 0.1mM),NP40-soluble protein abundance (concentration: 0.5mM),NP40-soluble protein abundance (concentration: 1mM),NP40-soluble protein abundance (concentration: 2mM),NP40-soluble protein abundance (concentration: 4mM),NP40-soluble protein abundance (concentration: 6mM),NP40-soluble protein abundance (concentration: 8mM),NP40-soluble protein abundance (concentration: 10mM)
UniProt P30307 and related entries,1.12 ± 0.12,1.12 ± 0.015,1.07 ± 0.051,1.16 ± 0.05,1.09 ± 0.021,1.07 ± 0.085,1.03 ± 0.044,1.02 ± 0.14
CPOX (UniProt P36551),1.01 ± 0.031,1.01 ± 0.032,0.929 ± 0.062,0.917 ± 0.04,0.951 ± 0.034,0.911 ± 0.054,0.881 ± 0.034,0.876 ± 0.051
